Among the data in paper PMC12574041 are binding values, retold here.

Chains of the proteins cited; added tags and fusions are not shown.
UniProt O76083: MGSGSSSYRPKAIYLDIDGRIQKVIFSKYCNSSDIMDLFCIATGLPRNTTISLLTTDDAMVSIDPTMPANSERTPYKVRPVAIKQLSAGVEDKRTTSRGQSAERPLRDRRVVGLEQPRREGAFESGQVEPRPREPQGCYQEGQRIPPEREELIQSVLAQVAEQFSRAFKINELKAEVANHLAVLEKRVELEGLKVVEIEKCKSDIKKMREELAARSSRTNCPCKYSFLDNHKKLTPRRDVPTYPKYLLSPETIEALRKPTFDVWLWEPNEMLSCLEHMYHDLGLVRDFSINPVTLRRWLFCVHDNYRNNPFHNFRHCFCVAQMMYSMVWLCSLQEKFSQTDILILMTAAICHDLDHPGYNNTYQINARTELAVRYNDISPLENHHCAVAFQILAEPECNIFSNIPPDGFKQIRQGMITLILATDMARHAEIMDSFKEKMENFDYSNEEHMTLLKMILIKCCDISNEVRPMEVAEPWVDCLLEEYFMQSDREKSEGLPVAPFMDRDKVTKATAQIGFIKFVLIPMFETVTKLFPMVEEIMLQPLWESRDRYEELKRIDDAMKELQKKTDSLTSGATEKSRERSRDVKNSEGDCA
UniProt Q13049: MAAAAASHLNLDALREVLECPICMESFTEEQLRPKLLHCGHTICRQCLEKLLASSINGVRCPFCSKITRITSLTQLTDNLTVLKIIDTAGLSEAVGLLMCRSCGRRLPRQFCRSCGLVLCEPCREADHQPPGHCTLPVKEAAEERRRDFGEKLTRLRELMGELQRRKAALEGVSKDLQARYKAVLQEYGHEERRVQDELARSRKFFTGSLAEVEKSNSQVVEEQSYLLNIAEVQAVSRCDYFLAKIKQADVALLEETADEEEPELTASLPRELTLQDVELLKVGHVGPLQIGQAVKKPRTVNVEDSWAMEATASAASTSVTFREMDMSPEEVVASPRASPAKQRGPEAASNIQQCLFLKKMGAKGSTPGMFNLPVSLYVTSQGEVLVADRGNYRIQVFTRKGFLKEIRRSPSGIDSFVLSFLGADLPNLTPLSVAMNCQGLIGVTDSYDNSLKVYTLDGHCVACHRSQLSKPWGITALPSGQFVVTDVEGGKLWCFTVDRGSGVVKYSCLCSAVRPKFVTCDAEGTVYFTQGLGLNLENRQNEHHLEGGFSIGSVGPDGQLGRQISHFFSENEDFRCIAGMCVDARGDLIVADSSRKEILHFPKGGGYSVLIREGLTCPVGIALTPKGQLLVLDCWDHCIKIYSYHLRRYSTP

No constants are given. Whether binding was seen depends on the method and setting. Binding seen in cells or lysates may run through a third protein. Some results given as binding are weak or reduced against the parent protein; the word gives no strength.

This experiment has as its target Phosphodiesterase 9 A (PDE9A) (human (endogenous in AGS and HGC27)) (UniProt O76083). As to the kind of experiment: co-IP; endogenous proteins in AGS and HGC27 cell lysates; lysate incubated overnight with the primary antibody, then Protein A/G-PLUS Agarose beads for 4 h; eluates analysed by SDS-PAGE and WB; 4 °C.

“tripartite motif 32 (TRIM32) (from UniProt Q13049 1-653)”: the binding entry was “binds”.
